Data as given in PubChem BioAssay AID1053208 (Peter MacCallum Cancer Centre, 2014)

Assay: 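Genes whose silencing cuts survival of bone tumour cells only with doxorubicin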 (primary screen)
Cell system: mouse osteosarcoma cells, early-passage culture from an engineered mouse model of fibroblastic bone tumour
Reagents: siRNA pool against mouse genes, 40 nM
Time to read-out: about 120 h (48 h before drug, then 72 h with drug)
Challenge: doxorubicin 100 nM for 72 h, roughly 30-40% inhibitory dose
Read-out: 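Viability read as ATP luminescence after 72 h of 100 nM doxorubicin or none, duplicate wells averaged, scaled to non-targeting siRNA, then expressed as robust z-scores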
Scale: viability z-score with doxorubicin and doxorubicin viability vs non-targeting: higher = more viable cells under doxorubicin; viability z-score without drug: higher = more viable cells with knock-down alone; z-score of drug to no-drug ratio: higher = less drug sensitisation by knock-down
Rule for the call: 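a pool counts as active when its viability z-score with doxorubicin is -2 or below and its z-score without drug lies between -2 and 2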
This is an unselected part of about 17,000 deposited reagents. Of all reagents, 788 (4.7%) are marked active. 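Calls rest on z-score classes alone; an extra cut-off of viability at most 70% of control was not applied to them.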 The numbers tell different reagents against one gene apart.

gene symbol,reagent,combined z-score class,viability z-score with doxorubicin,viability z-score without drug,z-score of drug to no-drug ratio,doxorubicin viability vs non-targeting,outcome
H2-M3 (GeneID 14991),1,no change with or without drug,-0.22,-0.84,0.45,0.92,inactive
Dars2 (GeneID 226539),1,no change with or without drug,-0.56,-0.51,-0.11,0.89,inactive
Oxct1 (GeneID 67041),1,no change with or without drug,-0.22,-0.84,0.45,0.92,inactive
Kcns3 (GeneID 238076),1,no change with or without drug,-0.9,-1.85,0.45,0.86,inactive
Eif3j1 (GeneID 78655),1,no change with or without drug,-0.67,0.84,-1.12,0.88,inactive
Eif2b1 (GeneID 209354),1,no change with or without drug,0.34,0.51,0.11,0.97,inactive
Dnah11 (GeneID 13411),1,no change with or without drug,1.12,0.17,1.12,1.04,inactive
Cdk11b (GeneID 12537),1,no change with or without drug,-0.45,-0.51,0,0.9,inactive
Cacna1e (GeneID 12290),1,no change with or without drug,0.56,0,0.67,0.99,inactive
Ndufv3 (GeneID 78330),1,no change with or without drug,1.35,0.17,1.35,1.06,inactive
Dcbld1 (GeneID 66686),1,no change with or without drug,0.34,1.52,-0.56,0.97,inactive
Igdcc3 (GeneID 19289),1,no change with or without drug,-1.35,-0.84,-0.79,0.82,inactive
Snap25 (GeneID 20614),1,no change with or without drug,1.57,0.51,1.35,1.08,inactive
Pla2g4a (GeneID 18783),1,no change with or without drug,0.67,1.35,-0.11,1,inactive
Trim2 (GeneID 80890),1,high cell count without drug only,1.12,2.19,-0.22,1.04,inactive
Itgb7 (GeneID 16421),1,no change with or without drug,-0.79,1.01,-1.35,0.87,inactive
Kif27 (GeneID 75050),1,high cell count without drug only,-1.8,2.36,-2.92,0.78,inactive
Pigq (GeneID 14755),1,no change with or without drug,-0.11,0.67,-0.45,0.93,inactive
Dalrd3 (GeneID 67789),1,no change with or without drug,1.57,1.52,0.67,1.08,inactive
S100a5 (GeneID 20199),1,no change with or without drug,-1.57,0.17,-1.69,0.8,inactive
Gstm3 (GeneID 14864),1,no change with or without drug,1.8,0.34,1.69,1.1,inactive
Jakmip1 (GeneID 76071),1,low cell count without drug only,-1.35,-2.36,0.34,0.82,inactive
Nyx (GeneID 236690),1,no change with or without drug,1.12,1.35,0.34,1.04,inactive
Enpp3 (GeneID 209558),1,no change with or without drug,-0.34,0.51,-0.56,0.91,inactive
Trim21 (GeneID 20821),1,no change with or without drug,-1.01,-1.18,-0.11,0.85,inactive
Fbxo38 (GeneID 107035),1,no change with or without drug,0.11,-0.84,0.9,0.95,inactive
Ppp1r42 (GeneID 69312),1,no change with or without drug,0.22,-0.17,0.45,0.96,inactive
Ppia (GeneID 268373),1,no change with or without drug,0,1.69,-0.9,0.94,inactive
Cntn1 (GeneID 12805),1,no change with or without drug,-0.9,-0.84,-0.22,0.86,inactive
Mmp14 (GeneID 17387),1,no change with or without drug,0.11,-0.51,0.56,0.95,inactive
Actr6 (GeneID 67019),1,no change with or without drug,1.12,-0.51,1.69,1.04,inactive
Nipa1 (GeneID 233280),1,no change with or without drug,-0.67,0.51,-0.9,0.88,inactive
Scamp5 (GeneID 56807),1,no change with or without drug,-0.45,-0.51,0,0.9,inactive
Rpl35 (GeneID 66489),1,low cell count with and without drug,-5.85,-6.24,-2.92,0.42,inactive
Smgc (GeneID 223809),1,no change with or without drug,-0.9,0.84,-1.35,0.86,inactive
Spata20 (GeneID 217116),1,no change with or without drug,1.24,1.52,0.34,1.05,inactive
Serpinb2 (GeneID 18788),1,no change with or without drug,-0.22,1.85,-1.24,0.92,inactive
Pcm1 (GeneID 18536),1,no change with or without drug,0.11,0.51,-0.11,0.95,inactive
Ppargc1a (GeneID 19017),1,no change with or without drug,-0.67,0.84,-1.12,0.88,inactive
Ppargc1a (GeneID 19017),2,no change with or without drug,0.11,-0.67,0.67,0.95,inactive
Wee1 (GeneID 22390),1,low cell count with and without drug,-5.85,-2.53,-5.17,0.42,inactive
Vmn1r18 (GeneID 171199),1,no change with or without drug,-0.45,0.51,-0.67,0.9,inactive
Slc17a3 (GeneID 105355),1,no change with or without drug,1.12,0,1.24,1.04,inactive
Prp2 (GeneID 83380),1,no change with or without drug,-0.67,-0.67,-0.11,0.88,inactive
Or52r1c (GeneID 259056),1,no change with or without drug,-0.22,-0.84,0.45,0.92,inactive
Fbln2 (GeneID 14115),1,no change with or without drug,-0.56,0.51,-0.79,0.89,inactive
Or2l5 (GeneID 258937),1,no change with or without drug,-1.57,-1.18,-0.79,0.8,inactive
Or5p4 (GeneID 258927),1,no change with or without drug,0.9,0.84,0.45,1.02,inactive
Ncam2 (GeneID 17968),1,no change with or without drug,-0.22,-1.35,0.9,0.92,inactive
Strn3 (GeneID 94186),1,no change with or without drug,0.45,-0.51,1.01,0.98,inactive

Laid out differently: results already given.
Cdk11b (GeneID 12537) | combined z-score class = no change with or without drug; viability z-score with doxorubicin = -0.45; viability z-score without drug = -0.51; z-score of drug to no-drug ratio = 0; doxorubicin viability vs non-targeting = 0.9; outcome = inactive
Cacna1e (GeneID 12290) | combined z-score class = no change with or without drug; viability z-score with doxorubicin = 0.56; viability z-score without drug = 0; z-score of drug to no-drug ratio = 0.67; doxorubicin viability vs non-targeting = 0.99; outcome = inactive
Ndufv3 (GeneID 78330) | combined z-score class = no change with or without drug; viability z-score with doxorubicin = 1.35; viability z-score without drug = 0.17; z-score of drug to no-drug ratio = 1.35; doxorubicin viability vs non-targeting = 1.06; outcome = inactive
Dcbld1 (GeneID 66686) | combined z-score class = no change with or without drug; viability z-score with doxorubicin = 0.34; viability z-score without drug = 1.52; z-score of drug to no-drug ratio = -0.56; doxorubicin viability vs non-targeting = 0.97; outcome = inactive
Igdcc3 (GeneID 19289) | combined z-score class = no change with or without drug; viability z-score with doxorubicin = -1.35; viability z-score without drug = -0.84; z-score of drug to no-drug ratio = -0.79; doxorubicin viability vs non-targeting = 0.82; outcome = inactive
Snap25 (GeneID 20614) | combined z-score class = no change with or without drug; viability z-score with doxorubicin = 1.57; viability z-score without drug = 0.51; z-score of drug to no-drug ratio = 1.35; doxorubicin viability vs non-targeting = 1.08; outcome = inactive
Pla2g4a (GeneID 18783) | combined z-score class = no change with or without drug; viability z-score with doxorubicin = 0.67; viability z-score without drug = 1.35; z-score of drug to no-drug ratio = -0.11; doxorubicin viability vs non-targeting = 1; outcome = inactive
